Cell number after 72 h of treatment

Data from the primary screen of doi:10.1371/journal.pone.0140310, rounded.

Drugs:
MK-2206, 0.4 µM: NC1(c2ccc(-c3nc4ccn5c(=O)[nH]nc5c4cc3-c3ccccc3)cc2)CCC1
cisplatin, 1.6 µM: N.N.[Cl][Pt][Cl]
enzastaurin, 0.8 µM: Cn1cc(C2=C(c3cn(C4CCN(Cc5ccccn5)CC4)c4ccccc34)C(=O)NC2=O)c2ccccc21
bexarotene, 2 µM: C=C(c1ccc(C(=O)O)cc1)c1cc2c(cc1C)C(C)(C)CCC2(C)C
crizotinib, 0.2 µM: C[C@@H](Oc1cc(-c2cnn(C3CCNCC3)c2)cnc1N)c1c(Cl)ccc(F)c1Cl
NVP-BEZ235, 0.004 µM: Cn1c(=O)n(-c2ccc(C(C)(C)C#N)cc2)c2c3cc(-c4cnc5ccccc5c4)ccc3ncc21
vismodegib, 1 µM: CS(=O)(=O)c1ccc(C(=O)Nc2ccc(Cl)c(-c3ccccn3)c2)c(Cl)c1
sorafenib, 0.4 µM: CNC(=O)c1cc(Oc2ccc(NC(=O)Nc3ccc(Cl)c(C(F)(F)F)c3)cc2)ccn1
veliparib, 1.4 µM: C[C@]1(c2nc3c(C(N)=O)cccc3[nH]2)CCCN1

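The test systems are human melanoma cell lines, treated with two drugs together for 72 h and then stained and imaged. Each value is the count of nuclei relative to DMSO-treated wells, in %, so that 100 equals the control. Concentrations were fixed for each drug; these are the lower of two levels, a fifth of the higher. These are primary screening values without error estimates.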 An unselected part of the screen is shown.

With veliparib and sorafenib the screen read A2058: 82.7; LOX IMVI: 94.6. NVP-BEZ235 and vismodegib gave A2058: 107; LOX IMVI: 83.7. Results for vismodegib and enzastaurin are A2058: 101; LOX IMVI: 133. With MK-2206 and enzastaurin the screen read A2058: 96.2; LOX IMVI: 74.8. With sorafenib and NVP-BEZ235 the screen read A2058: 92.8; LOX IMVI: 86.2.

For veliparib and MK-2206 the values were A2058: 76.0; LOX IMVI: 89.8. vismodegib and sorafenib gave A2058: 102; LOX IMVI: 58.9. Results for NVP-BEZ235 and veliparib are A2058: 86.3; LOX IMVI: 41.8. Results for sorafenib and crizotinib are A2058: 98.7; LOX IMVI: 121. MK-2206 and NVP-BEZ235 gave A2058: 73.5; LOX IMVI: 123.

enzastaurin and sorafenib gave A2058: 86.8; LOX IMVI: 74.7. For vismodegib and cisplatin the values were A2058: 101; LOX IMVI: 105. With enzastaurin and NVP-BEZ235 the screen read A2058: 96.0; LOX IMVI: 104. With vismodegib and crizotinib the screen read A2058: 85.7; LOX IMVI: 183. For veliparib and vismodegib the values were A2058: 109; LOX IMVI: 100.

Results for enzastaurin and bexarotene are A2058: 100; LOX IMVI: 151. With enzastaurin and crizotinib the screen read A2058: 99.6; LOX IMVI: 109. For cisplatin and NVP-BEZ235 the values were A2058: 73.7; LOX IMVI: 99.6. Results for vismodegib and MK-2206 are A2058: 87.9; LOX IMVI: 101. For cisplatin and veliparib the values were A2058: 78.9; LOX IMVI: 124.

For cisplatin and enzastaurin the values were A2058: 104; LOX IMVI: 100. For vismodegib and bexarotene the values were A2058: 89.1; LOX IMVI: 145. For MK-2206 and sorafenib the values were A2058: 83.5; LOX IMVI: 79.1. Results for crizotinib and MK-2206 are A2058: 92.7; LOX IMVI: 121. Results for sorafenib and cisplatin are A2058: 91.1; LOX IMVI: 86.7.

For crizotinib and NVP-BEZ235 the values were A2058: 96.1; LOX IMVI: 135. Results for crizotinib and veliparib are A2058: 97.8; LOX IMVI: 76.9. With bexarotene and MK-2206 the screen read A2058: 84.1; LOX IMVI: 141. cisplatin and crizotinib gave A2058: 105; LOX IMVI: 81.8.

For reference, 4 entries once more:

* cisplatin and veliparib | A2058: 78.9; LOX IMVI: 124
* sorafenib and crizotinib | A2058: 98.7; LOX IMVI: 121
* bexarotene and MK-2206 | A2058: 84.1; LOX IMVI: 141
* sorafenib and NVP-BEZ235 | A2058: 92.8; LOX IMVI: 86.2